In the supplement of paper PMC12823440, “Inhibitors supercharge kinase turnover through native proteolytic circuits” (Nature, 2025):
Structures can show the parent of a compound that is named as a salt. Some of the results follow. Hit calls seldom repeat between salt and free forms of one compound.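 In K562 cells expressing nanoluciferase-fused kinases, luminescence was recorded at 4 h intervals between 2 and 18 h, normalized as percent of control with DMSO at 100% and a positive control at 0%. A significant (2 sigma) signal drop marks a time point as decreased. The authors' rule for a hit is not shown and takes in more than the number of time points.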

The chains behind the UniProt entries cited, without tags or fusion partners. Where a name states a change or a piece, a line headed by the entry shows the natural chain unless it says otherwise.
UniProt Q01974, whole entry: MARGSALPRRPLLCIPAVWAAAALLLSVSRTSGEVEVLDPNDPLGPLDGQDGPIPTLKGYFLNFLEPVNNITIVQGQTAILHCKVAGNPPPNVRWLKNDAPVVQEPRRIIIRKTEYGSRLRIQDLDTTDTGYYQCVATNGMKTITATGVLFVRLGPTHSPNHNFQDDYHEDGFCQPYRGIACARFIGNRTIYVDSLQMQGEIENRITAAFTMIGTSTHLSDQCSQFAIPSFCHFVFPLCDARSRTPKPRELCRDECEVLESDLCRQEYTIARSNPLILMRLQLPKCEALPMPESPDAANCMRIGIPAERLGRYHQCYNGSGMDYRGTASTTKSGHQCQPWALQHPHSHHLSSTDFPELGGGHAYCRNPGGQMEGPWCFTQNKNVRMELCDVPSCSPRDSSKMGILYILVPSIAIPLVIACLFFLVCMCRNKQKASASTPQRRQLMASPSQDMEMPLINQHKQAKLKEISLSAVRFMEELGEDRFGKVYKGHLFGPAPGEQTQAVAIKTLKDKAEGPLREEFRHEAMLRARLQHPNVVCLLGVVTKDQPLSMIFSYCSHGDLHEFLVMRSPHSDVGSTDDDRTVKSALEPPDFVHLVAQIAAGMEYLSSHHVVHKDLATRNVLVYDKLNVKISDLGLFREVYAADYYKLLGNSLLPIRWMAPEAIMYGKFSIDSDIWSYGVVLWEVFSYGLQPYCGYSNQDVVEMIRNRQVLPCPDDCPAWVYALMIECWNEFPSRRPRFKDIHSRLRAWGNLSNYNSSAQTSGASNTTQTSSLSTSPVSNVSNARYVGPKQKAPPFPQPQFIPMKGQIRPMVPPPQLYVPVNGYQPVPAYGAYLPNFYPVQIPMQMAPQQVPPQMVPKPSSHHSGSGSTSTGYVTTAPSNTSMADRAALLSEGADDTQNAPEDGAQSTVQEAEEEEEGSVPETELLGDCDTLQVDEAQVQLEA
UniProt Q15418, whole entry: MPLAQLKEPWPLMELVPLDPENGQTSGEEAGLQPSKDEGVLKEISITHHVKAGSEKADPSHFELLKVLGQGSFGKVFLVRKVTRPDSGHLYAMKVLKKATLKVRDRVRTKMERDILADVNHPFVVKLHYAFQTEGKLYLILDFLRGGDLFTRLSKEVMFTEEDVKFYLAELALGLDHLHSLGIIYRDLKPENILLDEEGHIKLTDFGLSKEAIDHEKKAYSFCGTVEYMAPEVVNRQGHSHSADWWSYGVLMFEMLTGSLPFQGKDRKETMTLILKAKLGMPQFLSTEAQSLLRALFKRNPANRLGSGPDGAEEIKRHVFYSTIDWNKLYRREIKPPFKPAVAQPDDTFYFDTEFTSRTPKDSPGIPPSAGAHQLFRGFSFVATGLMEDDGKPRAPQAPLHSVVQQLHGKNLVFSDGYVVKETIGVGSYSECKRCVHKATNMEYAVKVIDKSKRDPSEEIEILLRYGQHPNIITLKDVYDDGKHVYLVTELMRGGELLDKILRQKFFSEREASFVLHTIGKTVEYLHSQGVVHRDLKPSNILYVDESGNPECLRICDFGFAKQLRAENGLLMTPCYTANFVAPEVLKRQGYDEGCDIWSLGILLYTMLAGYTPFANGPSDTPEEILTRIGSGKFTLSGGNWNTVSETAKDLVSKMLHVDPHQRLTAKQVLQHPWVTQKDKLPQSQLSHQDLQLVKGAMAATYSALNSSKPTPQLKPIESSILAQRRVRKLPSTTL
UniProt Q9NYA1, whole entry: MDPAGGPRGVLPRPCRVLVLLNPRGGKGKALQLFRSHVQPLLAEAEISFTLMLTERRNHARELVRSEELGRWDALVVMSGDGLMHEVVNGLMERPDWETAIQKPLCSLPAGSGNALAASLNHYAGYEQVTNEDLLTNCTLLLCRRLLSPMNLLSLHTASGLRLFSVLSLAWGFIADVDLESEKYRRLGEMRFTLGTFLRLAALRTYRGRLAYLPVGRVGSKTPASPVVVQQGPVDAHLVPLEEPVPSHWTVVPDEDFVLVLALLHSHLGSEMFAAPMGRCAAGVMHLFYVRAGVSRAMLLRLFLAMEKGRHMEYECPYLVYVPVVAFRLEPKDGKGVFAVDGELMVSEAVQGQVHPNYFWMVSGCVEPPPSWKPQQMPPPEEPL
UniProt Q9Y6E0: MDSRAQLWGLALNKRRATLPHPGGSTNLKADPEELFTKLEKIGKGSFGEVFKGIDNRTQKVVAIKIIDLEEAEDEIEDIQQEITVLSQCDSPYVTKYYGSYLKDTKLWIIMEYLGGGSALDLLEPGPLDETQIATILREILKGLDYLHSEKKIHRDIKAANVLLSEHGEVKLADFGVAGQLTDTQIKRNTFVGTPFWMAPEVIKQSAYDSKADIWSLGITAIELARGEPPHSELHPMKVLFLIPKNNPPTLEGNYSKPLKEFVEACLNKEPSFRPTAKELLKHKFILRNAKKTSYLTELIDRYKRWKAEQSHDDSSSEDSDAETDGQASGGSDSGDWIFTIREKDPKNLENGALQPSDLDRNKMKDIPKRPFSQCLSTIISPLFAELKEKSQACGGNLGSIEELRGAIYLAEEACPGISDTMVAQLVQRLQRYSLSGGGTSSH
UniProt Q15208: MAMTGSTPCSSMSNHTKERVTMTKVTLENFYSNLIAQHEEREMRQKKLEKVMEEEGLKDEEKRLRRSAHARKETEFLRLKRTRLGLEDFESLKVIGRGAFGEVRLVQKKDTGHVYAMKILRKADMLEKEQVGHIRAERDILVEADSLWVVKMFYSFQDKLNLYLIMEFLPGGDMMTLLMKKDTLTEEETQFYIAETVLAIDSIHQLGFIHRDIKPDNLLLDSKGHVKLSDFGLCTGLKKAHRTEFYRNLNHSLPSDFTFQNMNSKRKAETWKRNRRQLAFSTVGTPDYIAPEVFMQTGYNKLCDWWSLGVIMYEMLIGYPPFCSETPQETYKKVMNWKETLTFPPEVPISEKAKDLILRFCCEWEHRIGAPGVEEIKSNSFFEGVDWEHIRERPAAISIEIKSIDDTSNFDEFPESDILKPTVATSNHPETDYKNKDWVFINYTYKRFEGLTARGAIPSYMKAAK
UniProt P42680: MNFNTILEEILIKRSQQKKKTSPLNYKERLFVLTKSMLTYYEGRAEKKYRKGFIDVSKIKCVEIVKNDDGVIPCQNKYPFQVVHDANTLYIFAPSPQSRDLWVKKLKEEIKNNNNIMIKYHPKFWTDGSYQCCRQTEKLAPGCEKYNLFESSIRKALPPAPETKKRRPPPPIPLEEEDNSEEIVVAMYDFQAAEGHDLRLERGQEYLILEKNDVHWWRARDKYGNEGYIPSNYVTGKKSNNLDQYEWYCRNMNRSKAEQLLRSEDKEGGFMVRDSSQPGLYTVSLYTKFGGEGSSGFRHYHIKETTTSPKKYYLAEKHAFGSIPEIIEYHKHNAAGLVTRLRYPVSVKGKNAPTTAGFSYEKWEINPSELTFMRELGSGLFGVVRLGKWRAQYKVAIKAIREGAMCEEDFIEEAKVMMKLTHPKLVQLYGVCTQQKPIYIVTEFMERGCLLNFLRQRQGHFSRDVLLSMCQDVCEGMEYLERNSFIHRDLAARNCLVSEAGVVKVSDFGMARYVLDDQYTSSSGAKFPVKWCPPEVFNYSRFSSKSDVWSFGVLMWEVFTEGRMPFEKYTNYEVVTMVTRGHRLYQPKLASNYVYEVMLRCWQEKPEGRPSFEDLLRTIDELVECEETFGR
UniProt P29597: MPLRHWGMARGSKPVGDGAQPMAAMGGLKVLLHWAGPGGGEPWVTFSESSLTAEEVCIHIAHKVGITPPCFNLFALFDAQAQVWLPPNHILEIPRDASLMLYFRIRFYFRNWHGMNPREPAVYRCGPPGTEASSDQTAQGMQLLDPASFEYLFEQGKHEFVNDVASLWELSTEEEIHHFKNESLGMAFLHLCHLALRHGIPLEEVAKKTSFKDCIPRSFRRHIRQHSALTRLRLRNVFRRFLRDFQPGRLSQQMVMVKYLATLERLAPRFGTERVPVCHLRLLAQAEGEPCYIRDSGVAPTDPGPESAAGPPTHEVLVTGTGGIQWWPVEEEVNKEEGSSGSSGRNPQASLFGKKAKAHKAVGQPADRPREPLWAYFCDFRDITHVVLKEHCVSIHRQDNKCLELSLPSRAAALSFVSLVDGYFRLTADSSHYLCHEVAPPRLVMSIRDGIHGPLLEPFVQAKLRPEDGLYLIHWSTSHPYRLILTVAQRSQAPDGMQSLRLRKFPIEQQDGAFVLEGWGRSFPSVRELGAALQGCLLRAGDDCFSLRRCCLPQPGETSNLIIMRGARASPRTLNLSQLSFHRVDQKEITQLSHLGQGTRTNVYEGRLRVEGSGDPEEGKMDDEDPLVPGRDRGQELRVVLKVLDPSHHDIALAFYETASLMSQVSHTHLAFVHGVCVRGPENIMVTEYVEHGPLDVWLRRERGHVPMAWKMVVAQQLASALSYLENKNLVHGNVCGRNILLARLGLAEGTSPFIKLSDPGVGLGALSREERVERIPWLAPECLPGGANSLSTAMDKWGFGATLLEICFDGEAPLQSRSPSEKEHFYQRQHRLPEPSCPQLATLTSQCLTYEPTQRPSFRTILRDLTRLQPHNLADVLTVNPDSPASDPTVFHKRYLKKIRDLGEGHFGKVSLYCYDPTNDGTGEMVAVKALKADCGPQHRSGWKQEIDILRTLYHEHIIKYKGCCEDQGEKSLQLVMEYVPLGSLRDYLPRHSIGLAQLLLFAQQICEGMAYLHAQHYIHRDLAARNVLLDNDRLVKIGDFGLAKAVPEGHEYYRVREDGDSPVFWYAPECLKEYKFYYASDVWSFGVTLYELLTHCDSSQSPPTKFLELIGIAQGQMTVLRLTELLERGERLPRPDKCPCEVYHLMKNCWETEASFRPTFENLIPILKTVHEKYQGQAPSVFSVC
UniProt Q6PHR2: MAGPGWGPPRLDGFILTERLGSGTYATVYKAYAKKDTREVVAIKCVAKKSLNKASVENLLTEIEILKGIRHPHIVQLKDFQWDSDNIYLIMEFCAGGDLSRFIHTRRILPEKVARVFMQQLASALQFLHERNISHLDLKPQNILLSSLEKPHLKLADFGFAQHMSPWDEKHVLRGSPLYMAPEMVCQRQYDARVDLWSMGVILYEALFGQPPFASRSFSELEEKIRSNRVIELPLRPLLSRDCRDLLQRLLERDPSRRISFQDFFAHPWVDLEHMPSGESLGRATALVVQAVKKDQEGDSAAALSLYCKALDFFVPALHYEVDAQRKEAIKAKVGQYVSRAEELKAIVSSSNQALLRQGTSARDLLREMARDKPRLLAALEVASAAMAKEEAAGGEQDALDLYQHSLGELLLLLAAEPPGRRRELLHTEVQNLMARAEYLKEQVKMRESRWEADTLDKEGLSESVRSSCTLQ
UniProt P07947, whole entry, looked up: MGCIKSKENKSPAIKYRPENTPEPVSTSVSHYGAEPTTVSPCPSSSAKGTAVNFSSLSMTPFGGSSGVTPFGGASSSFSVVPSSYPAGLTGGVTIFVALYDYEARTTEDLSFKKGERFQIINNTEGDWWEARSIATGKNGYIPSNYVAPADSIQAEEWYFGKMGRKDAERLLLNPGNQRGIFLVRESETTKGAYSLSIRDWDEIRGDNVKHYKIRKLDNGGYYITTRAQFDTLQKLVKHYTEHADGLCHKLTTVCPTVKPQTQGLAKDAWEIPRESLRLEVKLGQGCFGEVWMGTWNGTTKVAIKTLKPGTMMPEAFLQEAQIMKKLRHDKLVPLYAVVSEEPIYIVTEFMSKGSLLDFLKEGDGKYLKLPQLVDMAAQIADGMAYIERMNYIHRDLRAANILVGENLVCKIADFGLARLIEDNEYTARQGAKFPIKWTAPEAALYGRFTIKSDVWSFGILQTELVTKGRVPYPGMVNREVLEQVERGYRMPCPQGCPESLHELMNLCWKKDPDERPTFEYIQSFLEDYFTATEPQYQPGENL
UniProt P50613: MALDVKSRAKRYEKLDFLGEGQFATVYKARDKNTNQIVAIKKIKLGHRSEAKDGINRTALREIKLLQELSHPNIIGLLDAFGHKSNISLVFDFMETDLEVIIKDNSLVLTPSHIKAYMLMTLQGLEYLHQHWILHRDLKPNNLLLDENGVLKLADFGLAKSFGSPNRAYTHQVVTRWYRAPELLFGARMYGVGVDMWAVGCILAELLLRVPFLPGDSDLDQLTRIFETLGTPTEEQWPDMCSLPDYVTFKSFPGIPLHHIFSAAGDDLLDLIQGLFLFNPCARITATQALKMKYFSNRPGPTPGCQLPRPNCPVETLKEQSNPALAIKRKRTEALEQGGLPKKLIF
UniProt P50750, whole entry: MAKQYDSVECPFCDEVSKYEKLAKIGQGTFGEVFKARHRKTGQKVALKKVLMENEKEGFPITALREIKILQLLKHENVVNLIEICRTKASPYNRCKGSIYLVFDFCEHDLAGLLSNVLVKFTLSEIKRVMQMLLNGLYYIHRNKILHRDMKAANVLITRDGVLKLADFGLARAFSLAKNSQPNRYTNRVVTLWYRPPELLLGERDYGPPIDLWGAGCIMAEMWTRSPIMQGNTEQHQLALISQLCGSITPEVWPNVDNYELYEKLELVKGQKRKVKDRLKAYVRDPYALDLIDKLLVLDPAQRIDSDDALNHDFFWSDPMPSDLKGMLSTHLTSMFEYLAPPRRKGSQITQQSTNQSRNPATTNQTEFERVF

Tests used:
Settings in all cases: K562; 2-18 h
ROR2 = ROR2 (UniProt Q01974); assay: number of time points (of 5) at which kinase-Nluc abundance scored as decreased, DMSO-normalised (count); higher = more persistent destabilization
RPS6KA1 = RPS6KA1 (UniProt Q15418); assay: as above
SPHK1 = SPHK1 (UniProt Q9NYA1); assay: as above
SRC = SRC (UniProt P12931); assay: as above
STK24 = STK24 (UniProt Q9Y6E0); assay: as above
STK38 = STK38 (UniProt Q15208); assay: as above
SYK = SYK (UniProt P43405); assay: as above
TEC = TEC (UniProt P42680); assay: as above
TYK2 = TYK2 (UniProt P29597); assay: as above
ULK3 = ULK3 (UniProt Q6PHR2); assay: as above
YES1 = YES1 (UniProt P07947); assay: as above
ZAK = ZAK (UniProt Q9NYL2); assay: as above
ZAP70 = ZAP70 (UniProt P43403); assay: as above
CDK4 = CDK4 (UniProt P11802); assay: number of time points (of 4; 2 h point missing) at which kinase-Nluc abundance scored as decreased, DMSO-normalised (count); higher = more persistent destabilization
CDK7 = CDK7 (UniProt P50613); assay: as above
CDK9 = CDK9 (UniProt P50750); assay: as above

Measured: number of time points

Cn1c(N2CCO[C@@H](c3ccc(F)cc3)C2)nc(-c2ccncn2)cc1=O (10 µM)
0: all assays above

CN1CCC(Nc2ccc(C(=O)Nc3cc(-c4ccc5c(c4)OCO5)[nH]n3)cc2)CC1 (10 µM)
0: all assays above

Cc1ccc(Nc2cc(N[C@@H]3CCCC[C@@H]3N)nnc2C(N)=O)nc1C (2 µM)
not listed: SYK
0: all other assays above

COc1cc2nccc(Nc3cccc(Oc4ccccc4)c3)c2cc1OC (2.5 µM)
not listed: STK38
0: all other assays above

CCNC(=O)Nc1ccc(-c2nc3c(c(N4CCOC[C@@H]4C)n2)CCN(C2COC2)C3)cc1 (2.5 µM)
1: ULK3
not listed: SRC | TYK2
0: all other assays above

CN1CCN(Cc2ccc(-c3cnc4[nH]cc(-c5ccc6[nH]ccc6c5)c4c3)cc2)CC1 (2.5 µM)
1: ULK3
0: all other assays above

COc1ccc(CCNCc2ccc(OCc3ccc(Cl)nc3)c(OC)c2)cc1OC [SBE13 (Hydrochloride)] (10 µM)
0: all assays above

CN1CCC(Nc2nc(Nc3ccc(Oc4ccccc4)cc3)c3c(=O)[nH]cc(Br)c3n2)CC1 (2.5 µM)
3: SPHK1 | STK38
4: TYK2
0: all other assays above

C[C@@H]1CN(Cc2ccc(F)cc2)[C@@H](C)CN1C(=O)c1cc2c(C(=O)C(=O)N(C)C)cn(C)c2cc1Cl [Talmapimod] (10 µM)
0: all assays above

O=C(NCc1ccn[nH]1)c1cc([C@@H]2CCNC[C@H]2COc2ccc3c(c2)OCO3)ccc1F [GRK2-IN-1 (hydrochloride)] (10 µM)
0: all assays above

Cc1cc2c(F)c(Oc3ncnn4cc(OC[C@@H](C)OC(=O)[C@H](C)N)c(C)c34)ccc2[nH]1 [Brivanib (alaninate)] (10 µM)
0: all assays above

CC(=O)O/N=C1/C(c2c(O)[nH]c3cc(Br)ccc23)=Nc2ccccc21 [BIO-acetoxime] (10 µM)
0: all assays above

CCn1c(N)c(C(=O)NC)c(=O)c2ccc(C#CC(C)(O)COC)nc21 (stereo unspecified) (10 µM)
0: all assays above

CCc1c(C(=O)NNC(=O)[C@H](O)c2cc(F)cc(F)c2)ccc(O)c1C (10 µM)
not listed: CDK4
0: all other assays above

CCCS(=O)(=O)N[C@H]1C[C@@H](N(C)c2ncnc3[nH]ccc23)C1 [Abrocitinib] (10 µM)
0: all assays above

CC(C)(CCCCCC(O)CCCCCC(C)(C)C(=O)O)C(=O)O [Bempedoic acid] (10 µM)
0: all assays above

O=C1CCC(N2C(=O)c3cccc(OCCCCCOc4ccc(CC(=O)Nc5cc(C6CCC6)[nH]n5)cc4)c3C2=O)C(=O)N1 (stereo unspecified) [PROTAC CDK9 Degrader-1] (10 µM)
1: STK38 | TYK2 | CDK7
0: all other assays above

CN(C)C(=O)c1cc2cnc(Nc3ccc(N4CCN(CCCCNC(=O)COc5cccc6c5C(=O)N(C5CCC(=O)NC5=O)C6=O)CC4)cn3)nc2n1C1CCCC1 (stereo unspecified) (10 µM)
0: all assays above

CN1CCN(c2ccc(-n3cc(-c4ccncc4OCC4CCNCC4)cn3)cc2)CC1 [MELK-8a (hydrochloride)] (10 µM)
4: TYK2 | ULK3
2: TEC | YES1
3: CDK7
1: SPHK1 | STK38 | SYK | ZAK | CDK9
0: all other assays above

CNCc1ccccc1Sc1cccc2ccccc12 [IFN alpha-IFNAR-IN-1 (hydrochloride)] (10 µM)
3: TYK2
1: TEC
2: STK38 | CDK7
0: all other assays above

CCC[C@H](C)Oc1nc(N)c2[nH]c(=O)n(CCCCCN3CCCCC3)c2n1 (10 µM)
0: all assays above

CCOC(=O)c1c(Nc2ccccc2Cl)oc(/C=C2\C=Nc3ncccc32)c1O (10 µM)
0: all assays above

CO[C@@H]1[C@H](N(C)C(=O)c2ccccc2)C[C@H]2O[C@]1(C)n1c3ccccc3c3c4c(c5c6ccccc6n2c5c31)C(=O)NC4 [Midostaurin] (2.5 µM)
1: STK38
3: TYK2
4: ULK3
0: all other assays above

NC(=O)c1cnc(N[C@@H]2CCCC[C@@H]2N)nc1Nc1cccc(-n2nccn2)c1 (2.5 µM)
not listed: SYK
0: all other assays above

CN(C)CCOc1cc(-c2cn[nH]c2)ccc1NC(=O)C1COc2ccccc2O1 (stereo unspecified) (10 µM)
0: all assays above

CC1(C)CN(C(=O)c2ccc(-c3cccc4nc(NC(=O)C5CC5)nn34)cc2)C1 [Solcitinib] (10 µM)
not listed: STK38
0: all other assays above

Cn1cnc2c(F)c(Nc3ccc(Br)cc3F)c(C(=O)NOCCO)cc21 [Binimetinib] (10 µM)
0: all assays above

C=CC(=O)N1CCC(c2ccc(C(N)=O)c(-c3ccc(Oc4ccccc4)cc3)n2)CC1 [Orelabrutinib] (2.5 µM)
0: all assays above

N=C(NC(=N)N1CCCC1)Nc1ccc(OC(F)(F)F)cc1 (10 µM)
0: all assays above

O=c1cc(-c2ccc(O[C@@H]3O[C@H](CO)[C@@H](O)[C@H](O)[C@H]3O)cc2)oc2cc(O)c([C@@H]3O[C@H](CO)[C@@H](O)[C@H](O)[C@H]3O[C@@H]3OC[C@H](O)[C@H](O)[C@H]3O)c(O)c12 [Vaccarin] (10 µM)
0: all assays above

COCCOc1cnc2ccn([C@H](C)c3nnc4c(F)cc(-c5cnn(C)c5)cn34)c(=O)c2c1 (10 µM)
0: all assays above

Cc1n[nH]c2ncc(C(=O)N3CCC[C@H]3c3ccc(Cl)cc3)cc12 (10 µM)
0: all assays above

O=C(Nc1ccc(F)cc1F)C(NC(=S)Nc1cc(C(F)(F)F)cc(C(F)(F)F)c1)c1ccccc1 (racemic) (2.5 µM)
0: all assays above

Cc1cnc(Nc2ccc(F)cc2Cl)nc1-c1c[nH]c(C(=O)N[C@H](CO)c2cccc(Cl)c2)c1 (10 µM)
not listed: SYK
0: all other assays above
